The values below are quoted from earlier work in PMC2483489 (Acta Crystallographica Section D: Biological Crystallography, 2006).

One data set has as its system Glu255Lys. The settings on record: read-out: IC50 for Glu255Lys; ref Cowan-Jacob et al., 2004.
A further data set deals with Tyr253His. The settings on record: read-out: IC50 for Tyr253His; ref Cowan-Jacob et al., 2004.
The test system of the next data set is Thr315Ile Abl. To be noted: read-out: IC50 for Thr315Ile; ref Cowan-Jacob et al., 2004.
The subject of a further data set is Gly250Glu. The settings on record: read-out: IC50 for Gly250Glu; ref Cowan-Jacob et al., 2004.

Turning to `Cc1ccc(NC(=O)c2ccc(CN3CCN(C)CC3)cc2)cc1Nc1nccc(-c2cccnc2)n1` [Imatinib, imatinib], the 50% inhibitory concentration (IC50) was 6.7 µM in the data set on Glu255Lys, above 10 µM with Tyr253His, above 10 µM with Thr315Ile Abl and 3 µM with Gly250Glu.

As usually defined, the IC50 is the concentration that gives 50% inhibition.
